From PMC8556303 come the findings set out here.

No constants are given. Whether binding was seen depends on the method and setting. Binding seen in cells or lysates may run through a third protein. Some entries that bind do so weakly or less than the wild type.

The experiment concerns the target T1, AnnexinA7 (human (endogenous in Huh-7 and Hep3B)) (UniProt P20073).
T1 sequence: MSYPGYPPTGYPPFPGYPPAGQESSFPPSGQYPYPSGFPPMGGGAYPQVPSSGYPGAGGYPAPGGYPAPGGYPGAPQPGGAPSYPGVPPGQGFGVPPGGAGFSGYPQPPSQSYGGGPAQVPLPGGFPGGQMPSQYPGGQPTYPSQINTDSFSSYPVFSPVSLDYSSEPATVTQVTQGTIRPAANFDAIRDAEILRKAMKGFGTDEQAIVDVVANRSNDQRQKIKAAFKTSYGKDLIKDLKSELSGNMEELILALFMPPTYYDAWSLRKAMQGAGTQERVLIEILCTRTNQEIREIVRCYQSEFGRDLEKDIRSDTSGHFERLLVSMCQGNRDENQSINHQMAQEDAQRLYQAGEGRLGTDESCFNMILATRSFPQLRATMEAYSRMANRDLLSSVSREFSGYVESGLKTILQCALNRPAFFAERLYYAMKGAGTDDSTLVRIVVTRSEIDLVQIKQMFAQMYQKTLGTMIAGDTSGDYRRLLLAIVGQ
The experiment in a line: co-IP; lysates of Huh-7 and Hep3B cells (IP lysis buffer) incubated with primary antibodies overnight at 4 °C, protein A/G agarose beads, eluates immunoblotted; which antibody precipitated is not told. For orientation: A western blot detects proteins with antibodies after separation by electrophoresis.

B1: Soluble Resistance-related Calcium-binding protein (Sorcin) (protein, UniProt P30626 1-198)
chain: MAYPGHPGAGGGYYPGGYGGAPGGPAFPGQTQDPLYGYFAAVAGQDGQIDADELQRCLTQSGIAGGYKPFNLETCRLMVSMLDRDMSGTMGFNEFKELWAVLNGWRQHFISFDTDRSGTVDPQELQKALTTMGFRLSPQAVNSIAKRYSTNGKITFDDYIACCVKLRALTDSFRRRDTAQQGVVNFPYDDFIQCVMSV
Regarding B1, the binding result is listed as “binds”.
